# Measurements published in patent US20120328612A1.
# By UniProt entry, the sequences of proteins in these tests, tags left out. Residues count along the entry.
# UniProt P49771, residues 27-181: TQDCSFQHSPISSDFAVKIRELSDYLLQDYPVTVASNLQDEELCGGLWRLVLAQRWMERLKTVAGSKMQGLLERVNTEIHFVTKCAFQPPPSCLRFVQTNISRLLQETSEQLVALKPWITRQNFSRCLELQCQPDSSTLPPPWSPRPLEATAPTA
# These are yes or no findings as the source states them, for the method shown. Some results given as binding are weak or reduced against the parent protein; the word gives no strength.
# Molecular target: T1, human receptor tyrosine kinase FLT3 (human) (UniProt P36888)
# T1 sequence: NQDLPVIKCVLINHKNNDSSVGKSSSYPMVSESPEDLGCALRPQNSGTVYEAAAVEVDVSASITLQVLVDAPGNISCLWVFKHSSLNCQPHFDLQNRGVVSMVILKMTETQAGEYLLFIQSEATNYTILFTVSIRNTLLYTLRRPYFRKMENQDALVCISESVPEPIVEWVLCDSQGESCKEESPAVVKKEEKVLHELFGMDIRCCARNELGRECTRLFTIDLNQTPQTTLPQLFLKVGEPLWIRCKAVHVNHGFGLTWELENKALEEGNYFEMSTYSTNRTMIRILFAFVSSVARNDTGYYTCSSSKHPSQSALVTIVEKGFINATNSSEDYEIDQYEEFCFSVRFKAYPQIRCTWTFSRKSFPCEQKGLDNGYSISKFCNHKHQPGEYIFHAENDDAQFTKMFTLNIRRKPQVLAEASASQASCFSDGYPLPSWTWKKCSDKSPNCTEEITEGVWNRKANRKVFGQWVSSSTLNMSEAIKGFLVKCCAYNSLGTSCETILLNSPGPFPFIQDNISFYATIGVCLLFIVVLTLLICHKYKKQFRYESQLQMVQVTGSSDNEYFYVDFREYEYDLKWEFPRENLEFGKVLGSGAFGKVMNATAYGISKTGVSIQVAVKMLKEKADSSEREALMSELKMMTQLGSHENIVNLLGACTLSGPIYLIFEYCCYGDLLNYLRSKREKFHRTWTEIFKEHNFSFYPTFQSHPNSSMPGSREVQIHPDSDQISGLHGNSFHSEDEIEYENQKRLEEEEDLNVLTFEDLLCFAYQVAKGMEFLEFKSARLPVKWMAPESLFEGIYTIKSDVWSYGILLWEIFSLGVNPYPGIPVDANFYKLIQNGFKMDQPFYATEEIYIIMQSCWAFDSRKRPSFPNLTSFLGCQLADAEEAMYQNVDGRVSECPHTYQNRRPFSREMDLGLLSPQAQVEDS
# Experiment: competition, flow cytometry on NALM16 cells; rFLT3L varied, antibody (competitor 4G8SDIEM or BV10SDIEM) at 1 µg/ml
substance,measurement,value
recombinant FLT3 ligand (from UniProt P49771 27-181),binding,binds
